Where a chain is given by its changes, count along the chain named. Names may count otherwise.
B1: F124N (protein)
chain: MDIISVALKRHSTKAFDASKKLTPEQAEQIKTLLQYSPSSTNSQPWHFIVASTEEGKARVAKSAAGNYVFNERKMLDASHVVVFCAKTAMDDVWLKLVVDQEDADGRFATPEAKAANDKGRKFNADMHRKDLHDDAEWMAKQVYLNVGNFLLGVAALGLDAVPIEGFDAAILDAEFGLKEKGYTSLVVVPVGHHSVEDFNATLPKSRLPQNITLTEV
B2: N71S F124K: NTR double mutant, asparagine 71 to serine combined with phenylalanine 124 to lysine (protein)
chain: B1 chain with N71S, N124K

Tested on: HeLa cells
Assay: Western blot analysis of NTR expression in infected cells
Assay type: cell-based, human
Conditions: western blot of whole cell extracts

Molecule	level of NTR expression compared with WT
B1	lower than in WT NTR-expressing cells
B2	more similar to that of WT

— patent US20050013808A1, “Nitroreductase enzymes” (priority 2001, published 2005)
